The values below come from paper PMC3656112.

These are yes or no findings as the source states them, for the method shown. For some assays here: Binding seen in cells or lysates may run through a third protein. Some results given as binding are weak or reduced against the parent protein; the word gives no strength. Where a sequence is shown, tags or fusion partners need not be part of it.

For assay [1], the target named is T1, Vap27-1, bait fusion from pBT3-STE-Vap27-1 (Arabidopsis thaliana) (UniProt Q8VZ95).
T1 sequence: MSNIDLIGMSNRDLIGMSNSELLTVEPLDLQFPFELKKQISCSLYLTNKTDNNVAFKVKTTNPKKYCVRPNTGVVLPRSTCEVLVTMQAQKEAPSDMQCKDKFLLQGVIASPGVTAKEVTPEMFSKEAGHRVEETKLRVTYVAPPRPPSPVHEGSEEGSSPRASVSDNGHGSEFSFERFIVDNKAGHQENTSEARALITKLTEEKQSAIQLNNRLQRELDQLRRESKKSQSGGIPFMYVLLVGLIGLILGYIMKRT
As to the kind of experiment: two-hybrid; DUAL membrane system (a variant of the yeast two-hybrid assay for membrane proteins); bait in pBT3-STE, prey in pPR3-N; yeast NMY51; growth on SD/-Leu/-Trp/-His/-Ade at 30°C for 2 days.

Assay [2] deals with T2, Syp71-HA (Arabidopsis thaliana) (UniProt Q9SF29).
T2 sequence: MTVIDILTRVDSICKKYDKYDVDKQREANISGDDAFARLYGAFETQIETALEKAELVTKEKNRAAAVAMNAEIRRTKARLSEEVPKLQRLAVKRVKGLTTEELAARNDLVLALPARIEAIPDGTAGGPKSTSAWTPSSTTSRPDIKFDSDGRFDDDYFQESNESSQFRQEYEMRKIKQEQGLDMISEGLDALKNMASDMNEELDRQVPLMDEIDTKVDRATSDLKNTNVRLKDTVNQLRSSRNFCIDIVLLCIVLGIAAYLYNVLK
The assay is described as follows: co-IP; two tagged proteins transiently coexpressed in N. benthamiana leaves for 48 h; cleared lysate in 50 mM Tris pH 7.5, 150 mM NaCl, 10% glycerol, 0.1% Nonidet P-40, 5 mM DTT; immunoprecipitated with HA antibodies and protein G Sepharose at 4°C; detected by His antibodies.

B1: Syp71, prey fusion from pPR3-N-Syp71 (protein, UniProt Q9SF29 1-266)
chain: MTVIDILTRVDSICKKYDKYDVDKQREANISGDDAFARLYGAFETQIETALEKAELVTKEKNRAAAVAMNAEIRRTKARLSEEVPKLQRLAVKRVKGLTTEELAARNDLVLALPARIEAIPDGTAGGPKSTSAWTPSSTTSRPDIKFDSDGRFDDDYFQESNESSQFRQEYEMRKIKQEQGLDMISEGLDALKNMASDMNEELDRQVPLMDEIDTKVDRATSDLKNTNVRLKDTVNQLRSSRNFCIDIVLLCIVLGIAAYLYNVLK
In the case of B1, the binding result in assay [1] is “binds”.

B2: Vap27-1-His (protein, UniProt Q8VZ95 1-256)
chain: MSNIDLIGMSNRDLIGMSNSELLTVEPLDLQFPFELKKQISCSLYLTNKTDNNVAFKVKTTNPKKYCVRPNTGVVLPRSTCEVLVTMQAQKEAPSDMQCKDKFLLQGVIASPGVTAKEVTPEMFSKEAGHRVEETKLRVTYVAPPRPPSPVHEGSEEGSSPRASVSDNGHGSEFSFERFIVDNKAGHQENTSEARALITKLTEEKQSAIQLNNRLQRELDQLRRESKKSQSGGIPFMYVLLVGLIGLILGYIMKRT
B2: the binding result in assay [2] is listed as “binds”.
